According to paper doi:10.1101/299552:
These are yes or no findings as the source states them, for the method shown. Binding seen in cells or lysates may run through a third protein. Here binding means that the protein was enriched with, or labelled near, the bait; the list need not be complete. A no says only that the protein was not detected with the bait. Sequences can lack the tags named with a protein.

Sequences of proteins named here, by UniProt entry; tags and fusion partners are left off.
UniProt Q9WTX6: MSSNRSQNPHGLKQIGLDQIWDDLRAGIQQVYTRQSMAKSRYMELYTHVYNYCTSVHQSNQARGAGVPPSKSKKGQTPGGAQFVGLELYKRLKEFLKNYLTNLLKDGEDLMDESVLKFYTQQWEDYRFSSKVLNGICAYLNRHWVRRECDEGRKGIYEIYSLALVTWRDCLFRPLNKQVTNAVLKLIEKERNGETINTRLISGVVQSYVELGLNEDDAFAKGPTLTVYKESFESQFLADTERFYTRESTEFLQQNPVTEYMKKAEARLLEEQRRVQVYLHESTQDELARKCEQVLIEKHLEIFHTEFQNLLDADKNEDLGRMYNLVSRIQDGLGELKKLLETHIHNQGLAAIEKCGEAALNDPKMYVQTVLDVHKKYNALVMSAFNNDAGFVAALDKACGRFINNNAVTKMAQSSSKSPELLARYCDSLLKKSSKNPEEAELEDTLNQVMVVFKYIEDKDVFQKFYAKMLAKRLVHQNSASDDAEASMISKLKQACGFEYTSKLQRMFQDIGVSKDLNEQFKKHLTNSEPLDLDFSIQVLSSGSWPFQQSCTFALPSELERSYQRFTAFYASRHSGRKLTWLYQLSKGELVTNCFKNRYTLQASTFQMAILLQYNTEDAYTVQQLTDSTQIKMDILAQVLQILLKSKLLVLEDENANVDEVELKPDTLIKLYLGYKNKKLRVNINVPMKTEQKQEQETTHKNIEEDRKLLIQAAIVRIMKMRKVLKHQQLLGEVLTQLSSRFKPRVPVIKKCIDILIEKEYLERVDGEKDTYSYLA
UniProt P61290: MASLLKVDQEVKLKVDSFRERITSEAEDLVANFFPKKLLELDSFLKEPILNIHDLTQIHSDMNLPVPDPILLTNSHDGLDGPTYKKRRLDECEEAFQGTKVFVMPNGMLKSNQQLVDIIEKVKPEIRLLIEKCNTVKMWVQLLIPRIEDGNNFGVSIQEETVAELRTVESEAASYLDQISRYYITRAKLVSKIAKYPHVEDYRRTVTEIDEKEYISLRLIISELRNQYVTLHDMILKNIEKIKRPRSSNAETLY

T1: FS2-FBXL19 (epitope-tagged wild-type FBXL19, stable mouse ES cell line) (mouse) (UniProt Q6PB97)
T1 sequence: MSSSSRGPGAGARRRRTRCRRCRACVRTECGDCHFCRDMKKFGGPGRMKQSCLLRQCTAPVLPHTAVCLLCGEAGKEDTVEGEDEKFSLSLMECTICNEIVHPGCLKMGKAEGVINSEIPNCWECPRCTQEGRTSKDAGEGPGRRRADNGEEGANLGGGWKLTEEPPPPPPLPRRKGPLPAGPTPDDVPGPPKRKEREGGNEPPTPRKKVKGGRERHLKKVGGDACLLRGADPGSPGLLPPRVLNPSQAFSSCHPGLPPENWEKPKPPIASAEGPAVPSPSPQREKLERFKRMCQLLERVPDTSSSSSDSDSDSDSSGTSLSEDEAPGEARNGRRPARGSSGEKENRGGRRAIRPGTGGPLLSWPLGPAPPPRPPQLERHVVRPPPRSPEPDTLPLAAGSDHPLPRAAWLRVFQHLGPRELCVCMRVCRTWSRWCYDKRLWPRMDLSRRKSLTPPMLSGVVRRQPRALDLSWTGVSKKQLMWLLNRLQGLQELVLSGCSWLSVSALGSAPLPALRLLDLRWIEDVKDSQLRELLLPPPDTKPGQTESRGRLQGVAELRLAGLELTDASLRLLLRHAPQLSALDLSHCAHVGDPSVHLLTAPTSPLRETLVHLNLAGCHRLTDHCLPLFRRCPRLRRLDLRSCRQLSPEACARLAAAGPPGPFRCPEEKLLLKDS

B1: MED26 (protein, UniProt Q7TN02 1-588)
chain: MTAAPASPQQMRDRLLQAIDSQSNIRNMVAVLEVISSLERYPITKEALEETRLGKLINDVRKKTKNEELAKRAKRLLRSWQKLIEPVHQNEVALRALAGAAGSANGGAHNCRPEMGVAGAPKSIHDLKNRNDIQRLPGQRLDRLGSRKRRGDQRDLGHPGPPHKVSKGSPDPLVPNASPLPTNGISGSPESLPSPLDGSGHLGPDGSRLEPSDNEKHSTKIPVNAVRPRPSSPGLGKPPVPCLQTKAAQLQQLDRADESPGPPYPRGSSRCSFSPRNSRHEGSFSRHRSSYIPKGQVSSPSPWPQPPDNTQVPSPLPLAQPPTPPVRRQELLPNAESPVHWPEQSEGHPRLTGPACRAGFSPDSSKADSDATSSGGSDSKKKKRYRPRDYTVNLDGQVAEAGVKPVRLKERKLTFDPMTRQIRPLTQKEPVRADSPVPTEQLPRTELEQQEVKASLQSPFEQTNWKELSRNEIIQSYLSRQSSLLSSSGAQTPGAHHFMAEYLKQEESSRQGARQPHVLLPLPTPTDLPGLTREVTQDDLDRIQAQQWPGVNGCEDTQGNWYDWTQCISLDPHGDDGRLNILPYVCLD

Molecular target: T1, FS2-FBXL19 (epitope-tagged wild-type FBXL19, stable mouse ES cell line) (mouse)
Assay: affinity purification with mass spectrometry

Molecule | binding
CUL1 (from UniProt Q9WTX6 1-776) | no binding
nuclear proteasome activator PSME3 (from UniProt P61290 1-254) | binds
B1 | no binding
